# Screen size: about 320,000 compounds; about 620 (0.19%) were called active. Inconclusive results, whose numbers are uncertain, are shown with a selection of clear calls. Cut-off read from the data, not from the text of the source: active = activation above about 80%; inconclusive = between about 30% and that limit; inactive = weaker than that.
# Sequences of proteins named here, by UniProt entry; tags and fusion partners are left off.
# UniProt Q8NER1, whole entry, looked up: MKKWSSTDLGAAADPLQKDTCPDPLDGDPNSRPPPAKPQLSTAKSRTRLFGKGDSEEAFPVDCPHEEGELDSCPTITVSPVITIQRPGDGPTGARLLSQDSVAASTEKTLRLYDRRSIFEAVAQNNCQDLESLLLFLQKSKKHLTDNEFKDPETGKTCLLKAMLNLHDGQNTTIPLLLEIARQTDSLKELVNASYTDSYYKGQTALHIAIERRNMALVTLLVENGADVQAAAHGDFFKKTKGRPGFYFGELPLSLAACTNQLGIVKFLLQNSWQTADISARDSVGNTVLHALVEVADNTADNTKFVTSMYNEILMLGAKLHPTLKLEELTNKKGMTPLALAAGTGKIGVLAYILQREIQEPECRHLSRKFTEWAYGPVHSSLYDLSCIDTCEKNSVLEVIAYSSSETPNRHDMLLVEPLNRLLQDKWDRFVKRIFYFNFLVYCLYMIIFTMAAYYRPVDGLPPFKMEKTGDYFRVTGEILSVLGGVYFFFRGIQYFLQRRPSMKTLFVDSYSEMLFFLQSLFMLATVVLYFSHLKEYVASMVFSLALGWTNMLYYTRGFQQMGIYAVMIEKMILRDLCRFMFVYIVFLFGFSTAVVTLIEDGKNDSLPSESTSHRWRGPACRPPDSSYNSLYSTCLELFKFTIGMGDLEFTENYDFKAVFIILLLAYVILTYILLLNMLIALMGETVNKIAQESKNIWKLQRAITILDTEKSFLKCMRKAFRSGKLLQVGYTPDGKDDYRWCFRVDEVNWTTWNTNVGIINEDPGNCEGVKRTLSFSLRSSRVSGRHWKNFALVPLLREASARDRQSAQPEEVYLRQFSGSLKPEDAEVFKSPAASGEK
# Target: Transient receptor potential cation channel subfamily V member 1 (Homo sapiens) (UniProt Q8NER1)
# Assay: HTS Assay for Compounds that Act as Agonists of the Vanilloid Receptor 1; note: 0% is about no effect
# Settings: TRPV1-expressing cells, Fluo-8 calcium influx, agonist mode; at 8.33 µM, hits give high values
# How it was run: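 TRPV1-expressing cells were cultured overnight at 35.5C and loaded with Fluo-8 calcium dye for 40 to 90 min at room temperature. After a 10 s baseline, compound was added and calcium influx was read kinetically for 3 min (ex 480/em 520 nm).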
row,SMILES,activation
1,CNC(=S)N1CCN(c2ccc(Cl)c(Cl)c2)CC1,inconclusive: 51.7%
2,CCCCCCCCCCCCCCCC[N+](C)(C)CC,inactive: -0.681%
3,Cc1ccc(C(=O)NC2CCCCCCC2)cc1S(=O)(=O)N1CCOCC1,inconclusive: 46.1%
4,Cc1ccc(NC(=O)C2CCN(S(=O)(=O)c3cccs3)CC2)cc1C,inconclusive: 40.1%
5,C=C(C)C1Cc2c(C)nn(-c3nc(C)cc(C)n3)c2C1 (configuration not stated),inactive: 23.9%
6,CCN1CNC(=S)N(C(C)c2ccccc2)C1 (configuration not stated),inactive: -4.86%
7,CCc1ccc(OCC(O)CN2CCN(c3ccc(OC)cc3)CC2)cc1 (configuration not stated),inactive: -8.12%
8,Cc1nn(-c2ccccn2)c2c1C(c1ccsc1)C1=C(CCCC1=O)N2 (configuration not stated),inconclusive: 36.4%
9,COC(=O)CC(NC(=O)c1ccc(C)cc1)c1ccc2c(c1)OCO2 (configuration not stated),inactive: 2.27%
10,COc1cc2[nH]c(=S)nc(NCc3ccccn3)c2cc1OC,inactive: -3.46%
11,Cc1ccc(OCCOc2cccc(Br)c2)c([N+](=O)[O-])n1,inconclusive: 36.8%
12,CCn1c(-c2nn(-c3ccccc3)ccc2=O)n[nH]c1=S,inactive: -2.25%
13,COCC(C)NC(=O)c1ccc2nc(-c3ccccc3)c(-c3ccccc3)nc2c1 (configuration not stated),inconclusive: 30.4%
14,Cc1c(C(=O)c2ccccc2)c2ccccn2c1CCc1ccccn1,inconclusive: 47.1%
15,Cc1ccc(S(=O)(=O)/N=C(/NC(=S)Nc2cccc(C)c2)c2ccccc2)cc1,inactive: 1.05%
16,O=C(CC1C(=O)NCCN1Cc1ccc(-c2ccccc2)cc1)NCCOc1cccnc1 (configuration not stated),inactive: 1.41%
17,S=C(Nc1ccc2nc(-c3ccccn3)c(-c3ccccn3)nc2c1)N1CCCCC1,inconclusive: 32.1%
18,COc1cc2c(cc1NC(=O)c1cc(-c3ccncc3)nc3ccccc13)oc1ccccc12,inactive: -3.94%
19,CC1(C)Cc2c(cnn2-c2ccc(F)cc2)C(NC(=O)C2=NNC(=O)CC2)C1 (configuration not stated),inconclusive: 30.4%
20,Cc1ccc(N2C(=O)C3C4C=CC(CNC(=S)N5CCN(c6cccc(C)c6)C(C)C5)(O4)C3C2=O)cc1 (configuration not stated),inconclusive: 42.6%
21,O=C(c1cc(COc2ccc(F)cc2F)on1)N1CC[C@@H]2CCCC[C@H]2C1,inconclusive: 54.7%
22,Cn1nc(-c2ccccc2)c(N2CCCCC2)cc1=O,inconclusive: 43.4%
23,CC(C)N(C)S(=O)(=O)c1ccc(NC(=O)C2=COCCO2)cc1,inconclusive: 50.5%

row,SMILES,activation
1,O=C(CSc1nnc(C2CCCCC2)o1)N1CCCCC1,inconclusive: 53.5%
2,Cc1ccc(N(Cc2cc3ccccc3[nH]c2=O)C(=O)c2cccs2)cc1C,inconclusive: 67.4%
3,COC(=O)c1cc(NC(=O)c2cccc(C(F)(F)F)c2)c(=O)oc1C,inactive: 7.61%
4,CCCCOCCCNc1ncnc2c1[nH]c1ccccc12,inconclusive: 44.1%
5,Cc1ccc(C(=O)NCCSc2snnc2C)cc1,inconclusive: 40.6%
6,O=C(c1ccc(Cl)cc1)N1CCC(c2nc(-c3cccs3)no2)CC1,inconclusive: 31.7%
7,Cc1ccc(NC(=S)NCc2ccc(Cl)cc2)c(C)c1,inconclusive: 47.1%
8,COc1ccc(C)cc1Nc1c2c(nc3ccccc13)CCC2,inconclusive: 31.7%
9,CN(C)c1ccc(NC(=S)c2ccc3ccccc3n2)cc1,inconclusive: 31.4%
10,Cc1cccc(-c2nc(C#N)c(NC3CCCCC3)o2)c1,inconclusive: 70.3%
11,O=C(COC(=O)Cn1cnc2ccccc2c1=O)NCCC1=CCCCC1,inconclusive: 44.1%
12,CSc1ccccc1NC(=O)Nc1cccc(Cl)c1,inconclusive: 33.6%
13,CC(C)c1cc(-c2cc(-c3ccccc3)on2)nc(NC2CCCC2)n1,inconclusive: 37.2%
14,O=C(Nc1cccc(S(=O)(=O)N2CCOCC2)c1)c1cc2c(s1)CCC2,inconclusive: 72.3%
15,Cc1cccnc1Nc1nc(-c2ccccn2)cs1,inconclusive: 59.8%
16,Cc1cccc(Nc2ncnc3ccccc23)c1,inconclusive: 70.6%
17,CCOc1ccc(S(=O)(=O)N(C)c2ccc(OCC(=O)Nc3ccc4[nH]c(=O)[nH]c4c3)cc2)cc1,inconclusive: 41.7%
18,COc1cccc(CN(C)CC(=O)NCc2ccc(C)cc2)c1,inconclusive: 55.4%
19,O=C(OCc1nnc(-c2ccc(Cl)cc2)o1)c1ccc(O)cc1,inconclusive: 42.9%
20,COc1ccc(CCCC(=O)NC(C)c2ccccc2)cc1 (configuration not stated),inconclusive: 40.1%
21,COc1ccc(/C=N/n2c(C3CCCCC3)n[nH]c2=S)c(OC)c1,inactive: 25.7%
22,COc1cccc2c1OCC(CN1CCN(CCC(C)C)C(CCO)C1)=C2 (configuration not stated),inactive: 0.234%
23,CCN(c1ccccc1)S(=O)(=O)c1ccc(NC(=O)c2ccco2)cc1,inconclusive: 57%

# 28 entries from above in a different format:
row | SMILES | activation
8 | Cc1nn(-c2ccccn2)c2c1C(c1ccsc1)C1=C(CCCC1=O)N2 (configuration not stated) | inconclusive: 36.4%
9 | COC(=O)CC(NC(=O)c1ccc(C)cc1)c1ccc2c(c1)OCO2 (configuration not stated) | inactive: 2.27%
10 | COc1cc2[nH]c(=S)nc(NCc3ccccn3)c2cc1OC | inactive: -3.46%
11 | Cc1ccc(OCCOc2cccc(Br)c2)c([N+](=O)[O-])n1 | inconclusive: 36.8%
12 | CCn1c(-c2nn(-c3ccccc3)ccc2=O)n[nH]c1=S | inactive: -2.25%
13 | COCC(C)NC(=O)c1ccc2nc(-c3ccccc3)c(-c3ccccc3)nc2c1 (configuration not stated) | inconclusive: 30.4%
14 | Cc1c(C(=O)c2ccccc2)c2ccccn2c1CCc1ccccn1 | inconclusive: 47.1%
15 | Cc1ccc(S(=O)(=O)/N=C(/NC(=S)Nc2cccc(C)c2)c2ccccc2)cc1 | inactive: 1.05%
16 | O=C(CC1C(=O)NCCN1Cc1ccc(-c2ccccc2)cc1)NCCOc1cccnc1 (configuration not stated) | inactive: 1.41%
17 | S=C(Nc1ccc2nc(-c3ccccn3)c(-c3ccccn3)nc2c1)N1CCCCC1 | inconclusive: 32.1%
18 | COc1cc2c(cc1NC(=O)c1cc(-c3ccncc3)nc3ccccc13)oc1ccccc12 | inactive: -3.94%
19 | CC1(C)Cc2c(cnn2-c2ccc(F)cc2)C(NC(=O)C2=NNC(=O)CC2)C1 (configuration not stated) | inconclusive: 30.4%
20 | Cc1ccc(N2C(=O)C3C4C=CC(CNC(=S)N5CCN(c6cccc(C)c6)C(C)C5)(O4)C3C2=O)cc1 (configuration not stated) | inconclusive: 42.6%
21 | O=C(c1cc(COc2ccc(F)cc2F)on1)N1CC[C@@H]2CCCC[C@H]2C1 | inconclusive: 54.7%
22 | Cn1nc(-c2ccccc2)c(N2CCCCC2)cc1=O | inconclusive: 43.4%
23 | CC(C)N(C)S(=O)(=O)c1ccc(NC(=O)C2=COCCO2)cc1 | inconclusive: 50.5%
1 | O=C(CSc1nnc(C2CCCCC2)o1)N1CCCCC1 | inconclusive: 53.5%
2 | Cc1ccc(N(Cc2cc3ccccc3[nH]c2=O)C(=O)c2cccs2)cc1C | inconclusive: 67.4%
3 | COC(=O)c1cc(NC(=O)c2cccc(C(F)(F)F)c2)c(=O)oc1C | inactive: 7.61%
4 | CCCCOCCCNc1ncnc2c1[nH]c1ccccc12 | inconclusive: 44.1%
5 | Cc1ccc(C(=O)NCCSc2snnc2C)cc1 | inconclusive: 40.6%
6 | O=C(c1ccc(Cl)cc1)N1CCC(c2nc(-c3cccs3)no2)CC1 | inconclusive: 31.7%
7 | Cc1ccc(NC(=S)NCc2ccc(Cl)cc2)c(C)c1 | inconclusive: 47.1%
8 | COc1ccc(C)cc1Nc1c2c(nc3ccccc13)CCC2 | inconclusive: 31.7%
9 | CN(C)c1ccc(NC(=S)c2ccc3ccccc3n2)cc1 | inconclusive: 31.4%
10 | Cc1cccc(-c2nc(C#N)c(NC3CCCCC3)o2)c1 | inconclusive: 70.3%
11 | O=C(COC(=O)Cn1cnc2ccccc2c1=O)NCCC1=CCCCC1 | inconclusive: 44.1%
12 | CSc1ccccc1NC(=O)Nc1cccc(Cl)c1 | inconclusive: 33.6%

# (more compounds)

row,SMILES,activation
1,O=[N+]([O-])c1ccccc1N/N=C/c1ccccc1,inactive: -0.251%
2,Brc1ccc(-c2nnc(Cc3ccccc3)o2)cc1,inconclusive: 33.9%
3,CN(C(=O)c1ccccc1F)C(c1ccccc1)c1ccccc1,inconclusive: 38.6%
4,CCOC(=O)c1ccc(NC(=O)c2cccc(C)c2[N+](=O)[O-])cc1,inconclusive: 38.8%
5,O=C(CSc1ccc2ccccc2c1)NCc1cccs1,inconclusive: 55.7%
6,CC1(NC(=O)c2cc(Cl)nc3ccccc23)CCS(=O)(=O)C1 (configuration not stated),inactive: 0.0266%
7,CCOc1ccccc1NC(=O)C1CCCN(S(=O)(=O)c2ccc(-n3cnnn3)cc2)C1 (configuration not stated),inconclusive: 39.8%
8,O=C(CSc1nc2[nH]c(=O)cc(O)c2s1)Nc1cccc(Br)c1,inactive: 2.34%
9,Cc1ccc(-c2nnc(-c3ccccc3)c(-c3ccccc3)n2)cc1,inconclusive: 46.5%
10,COc1ccc(CCNC(=O)c2ccccc2OCc2ccccc2)cc1,inconclusive: 60.1%
11,c1ccc2sc(NCC3CCCO3)nc2c1 (configuration not stated),inactive: 6.2%
12,CCOc1ccc(C(=O)Nc2ccc(N3CCN(C(C)=O)CC3)cc2)cc1[N+](=O)[O-],inactive: 5.86%
13,CCOc1ccc(S(=O)(=O)N2CCCC(C(=O)N3CCOCC3)C2)cc1C (configuration not stated),inconclusive: 53.6%
14,O=C1c2ccccc2C(=O)N1OCc1ccccc1[N+](=O)[O-],inactive: 11%
15,Cc1ccccc1OCC(=O)NCC(=O)N/N=C/c1cccc([N+](=O)[O-])c1,inactive: -0.0905%
16,CCOc1ccc(C(=O)N2CCN(c3cccc(Cl)c3)CC2)cc1,inactive: 26.6%
17,CC(C)c1ccc(CN2CCN(C(=O)CSc3nnnn3C3CC3)CC2)cc1,inactive: 18.4%
18,CCCc1noc2c1/C(=N\O)CC(CC(C)SCC)C2 (configuration not stated),inconclusive: 36.7%
19,Cc1ccc2nc(-c3ccccc3)cc(C(=O)NCCCn3ccnc3)c2c1,inconclusive: 30.2%
20,O=C(N/N=C\c1cccc(F)c1)c1ccc(Cn2cc(Br)c([N+](=O)[O-])n2)o1,inconclusive: 36.1%
21,CCOC(=O)c1ccc2nc(C)c3c(c2c1)OC(C)C3 (configuration not stated),inconclusive: 30.4%
22,O=C(O)c1ccc(S(=O)(=O)c2ccc3c(c2)C(=O)N(NC(=O)c2ccncc2)C3=O)cc1,inconclusive: 50.8%
23,Cc1ccc(NC(=O)c2cccc(S(=O)(=O)N3CCCC3)c2)nc1,inconclusive: 36.8%

row,SMILES,activation
1,O=C(c1ccc(N2CCCC2)c([N+](=O)[O-])c1)N1CCc2ccccc2C1,inconclusive: 40%
2,COc1cccc(CNC(=S)NC2CCCC2)c1,inconclusive: 59.8%
3,Cc1cccc(/C=C/c2onc(C)c2S(=O)(=O)N2CCC(C(=O)N3CCC(C)CC3)CC2)c1,inconclusive: 45.3%
4,O=C(Nc1ccc(F)cc1)c1cc(S(=O)(=O)N2CCOCC2)cs1,inconclusive: 47%
5,COc1ccc2oc(=O)cc(CN(C)Cc3ccccc3)c2c1,inconclusive: 32.6%
6,Cc1ccc(C2CN(c3ccccc3)CC2C(=O)c2ccc(F)cc2)cc1 (configuration not stated),inconclusive: 38.8%
7,Cc1ccc(SCCNC(=O)c2ccccc2)cc1,inconclusive: 56.1%
8,COC(=O)c1ccsc1NC(=O)CSc1nnnn1-c1ccccc1SC,inactive: -8.96%
9,CCOc1ccc(-c2noc(CCCC(=O)NC3CCCC3)n2)cc1OC,inactive: -2.2%
10,CCOC(=O)N/N=C\C=C\c1ccc2c(c1)OCO2,inactive: 25%
11,Cc1cc(C(=O)COC(=O)c2cccn2C)c(C)n1Cc1ccco1,inconclusive: 51%
12,Cc1ccnc(NC(=O)c2ccc(Cl)c(NC(=O)C(C)Oc3ccccc3)c2)c1 (configuration not stated),inconclusive: 60.5%
13,COc1ccccc1C(=O)NC(=O)Nc1cccc(Cl)c1,inactive: 1.48%
14,Cc1c(C(=O)N(Cc2ccccc2)C(C)C)oc2ccc(S(=O)(=O)N3CCOCC3)cc12,inconclusive: 39.7%
15,c1ccc(OCc2nc3ccccc3[nH]2)cc1,inconclusive: 40.9%
16,COCCCNc1ncnc2c1[nH]c1ccccc12,inactive: -3.2%
17,CN(c1ccccc1)S(=O)(=O)c1ccc(NC(=S)NC(=O)c2ccccc2)cc1,inconclusive: 36.5%
18,O=C(NC1CCCC1)c1cc2cc(Br)ccc2o1,inconclusive: 67.6%
19,O=C(Nc1nccs1)c1ccc2ccccc2c1,inconclusive: 33.2%
20,O=C(COC(=O)c1ccc2ncsc2c1)NCc1cccc(Cl)c1,inconclusive: 40.8%
21,Cc1ccc(N2CC(C(=O)Nc3ccc4c(c3)OCO4)CC2=O)cc1 (configuration not stated),inconclusive: 65.9%
22,CC(C)Cc1nc2ccccc2n1CCc1ccccc1,inconclusive: 65%
23,CN1CCN(Cc2nc3ccccc3c(=O)n2Cc2nc(-c3ccccc3F)cs2)CC1,inactive: 2.39%

# Source: PubChem BioAssay AID540275 (National Center for Advancing Translational Sciences (NCATS), 2011)
